US20170166886A1
These are yes or no findings as the source states them, for the method shown. Some entries that bind do so weakly or less than the wild type.

target: Streptavidin (UniProt P22629); assay: phage display panning against streptavidin, Sanger sequencing of single clones

| Binder | binding |
| --- | --- |
| AEWETHDTFDNHPQVEEMRD [SEQ ID NO 28] | binds |
| GRDCHPQFNGMCLMLDRARN [SEQ ID NO 22] | binds |
| YDDCHPMNPSQCLPPQFGES [SEQ ID NO 19] | binds |
| PIVKYITFDPFDDCHPQVPC [SEQ ID NO 20] | binds |
| HAFSWEQDNLPCHPQFGECN [SEQ ID NO 24] | binds |
| NPHDMTANESQCHPQFGACK [SEQ ID NO 23] | binds |
| DRSVESDKHEPACHPQYGKC [SEQ ID NO 25] | binds |
| APYHPMDIHPCRHPQYPTDC [SEQ ID NO 18] | binds |
| IQPCHPQVWDGRCNVLNHQG [SEQ ID NO 21] | binds |
| RMGEIDGGKFCHPQRDKCTN [SEQ ID NO 27] | binds |
| KNWGVPMNMDCHPMCAKCHE [SEQ ID NO 26] | binds |

The next lines start with the values.

| binding | Binder |
| --- | --- |
| binds | SDMCHPQSGAYCYWPSHVDC [SEQ ID NO 31] |
| binds | RMGEIDGGKFCHPQRDKCTN [SEQ ID NO 29] |
| binds | GRECHPQFETDQSVLGQCWP [SEQ ID NO 39] |
| binds | PFQCHPQNGPCMYEAVPKPN [SEQ ID NO 37] |
| binds | HAFSWEQDNLPCHPQFGECN [SEQ ID NO 34] |
| binds | VGECHPQGGLPMGMCEYQDP [SEQ ID NO 30] |
| binds | EPNVMPNPWTKCHPMRDKCQ [SEQ ID NO 36] |
| binds | NPDMPARTLHCHPMGSREKC [SEQ ID NO 32] |
| binds | AETPGWGQMTPMFCHPQNRC [SEQ ID NO 33] |
| binds | FWKCHPQFGQCHEGMEGDKY [SEQ ID NO 38] |
| binds | AVGDHPQGPHDSMHLLESDR [SEQ ID NO 40] |
